# Reference: the supplement of paper PMC8728848
# Some of the results follow.
# B1: Flo11 (Saccharomyces cerevisiae), P08640 (protein)
# chain: MQRPFLLAYLVLSLLFNSALGFPTALVPRGSSEGTSCNSIVNGCPNLDFNWHMDQQNIMQYTLDVTSVSWVQDNTYQITIHVKGKENIDLKYLWSLKIIGVTGPKGTVQLYGYNENTYLIDNPTDFTATFEVYATQDVNSCQVWMPNFQIQFEYLQGSAAQYASSWQWGTTSFDLSTGCNNYDNQGHSQTDFPGFYWNIDCDNNCGGTKSSTTTSSTSESSTTTSSTSESSTTTSSTSESSTTTSSTSESSTSSSTTAPATPTTTSCTKEKPTPPTTTSCTKEKPTPPHHDTTPCTKKKTTTSKTCTKKTTTPVPTPSSSTTESSSAPVPTPSSSTTESSSAPVTSSTTESSSAPVPTPSSSTTESSSAPVTSSTTESSSAPVTSSTTESSSAPVPTPSSSTTESSSAPVTSSTTESSSAPVTSSTTESSSAPVTSSTTESSSAPVTSSTTESSSAPVPTPSSSTTESSSAPVTSSTTESSSAPVPTPSSSTTESSSAPVTSSTTESSSAPVPTPSSSTTESSSAPAPTPSSSTTESSSAPVTSSTTESSSAPVPTPSSSTTESSSTPVTSSTTESSSAPVPTPSSSTTESSSAPVPTPSSSTTESSSAPAPTPSSSTTESSSAPVTSSTTESSSAPVPTPSSSTTESSSAPVPTPSSSTTESSSAPVPTPSSSTTESSSAPVTSSTTESSSAPVTSSTTESSSAPVPTPSSSTTESSSAPVPTPSSSTTESSSAPVPTPSSSTTESSSAPVTSSTTESSSAPVPTPSSSTTESSSAPVPTPSSSTTESSSAPVPTPSSSTTESSVAPVPTPSSSSNITSSAPSSTPFSSSTESSSVPVPTPSSSTTESSSAPVSSSTTESSVAPVPTPSSSSNITSSAPSSIPFSSTTESFSTGTTVTPSSSKYPGSQTETSVSSTTETTIVPTKTTTSVTTPSTTTITTTVCSTGTNSAGETTSGCSPKTVTTTVPTTTTTSVTTSSTTTITTTVCSTGTNSAGETTSGCSPKTITTTVPCSTSPSETASESTTTSPTTPVTTVVSTTVVTTEYSTSTKPGGEITTTFVTKNIPTTYLTTIAPTPSVTTVTNFTPTTITTTVCSTGTNSAGETTSGCSPKTVTTTVPCSTGTGEYTTEATTLVTTAVTTTVVTTESSTGTNSAGKTTTGYTTKSVPTTYVTTLAPSAPVTPATNAVPTTITTTECSAATNAAGETTSVCSAKTIVSSASAGENTAPSATTPVTTAIPTTVITTESSVGTNSAGETTTGYTTKSIPTTYITTLIPGSNGAKNYETVATATNPISIKTTSQLATTASASSVAPVVTSPSLTGPLQSASGSAVATYSVPSISSTYQGAANIKVLGNFMWLLLALPVVF
# How the values were obtained:
# Experiment in all cases: glycan array binding signal (z-score within array); higher = stronger binding
# Settings in all cases: glycan notation: IUPAC condensed, linker removed
# [1] = biological target: Gal3S(b1-3)[Fuc(a1-4)]GlcNAc
# In short: (§1)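 From the Consortium for Functional Glycomics database, 3228 arrays were curated, keeping only those whose protein sequence was available. Binding is given as a within-array Z-score averaged across arrays sharing a protein sequence and across linkers. Negative Z-scores can be read as non-binding.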
# Gal3S(b1-4)Glc = biological target: Gal3S(b1-4)Glc
# In short: as §1
# Gal3S(b1-4)Glc6S = biological target: Gal3S(b1-4)Glc6S
# In short: as §1
# Gal3S(b1-4)GlcNAc = biological target: Gal3S(b1-4)GlcNAc
# In short: as §1
# Gal3S(b1-4)GlcNAc6S = biological target: Gal3S(b1-4)GlcNAc6S
# In short: as §1
# [2] = biological target: Gal3S(b1-4)[Fuc(a1-3)]Glc
# In short: as §1
# [3] = biological target: Gal3S(b1-4)[Fuc(a1-3)]Glc6S
# In short: as §1
# Gal3S4S(b1-4)GlcNAc = biological target: Gal3S4S(b1-4)GlcNAc
# In short: as §1
# Gal3S6S(b1-4)GlcNAc = biological target: Gal3S6S(b1-4)GlcNAc
# In short: as §1
# Gal3S6S(b1-4)GlcNAc6S = biological target: Gal3S6S(b1-4)GlcNAc6S
# In short: as §1
# Gal4S(b1-4)GlcNAc = biological target: Gal4S(b1-4)GlcNAc
# In short: as §1
# Gal4S6S(b1-4)GlcNAc = biological target: Gal4S6S(b1-4)GlcNAc
# In short: as §1
# Gal6S(b1-3)GlcNAc = biological target: Gal6S(b1-3)GlcNAc
# In short: as §1
# Gal6S(b1-3)GlcNAc6S = biological target: Gal6S(b1-3)GlcNAc6S
# In short: as §1
# Gal6S(b1-4)Glc = biological target: Gal6S(b1-4)Glc
# In short: as §1
# Gal6S(b1-4)Glc6S = biological target: Gal6S(b1-4)Glc6S
# In short: as §1
# Gal6S(b1-4)GlcNAc = biological target: Gal6S(b1-4)GlcNAc
# In short: as §1
# Gal6S(b1-4)GlcNAc6S = biological target: Gal6S(b1-4)GlcNAc6S
# In short: as §1
# GalNAc(a1-3)Gal = biological target: GalNAc(a1-3)Gal
# In short: as §1
# GalNAc(a1-3)GalNAc = biological target: GalNAc(a1-3)GalNAc
# In short: as §1
# [4] = biological target: GalNAc(a1-3)GalNAc(a1-3)Gal(a1-4)Gal(b1-4)GlcNAc
# In short: as §1
# [5] = biological target: GalNAc(a1-3)GalNAc(b1-3)Gal(a1-4)Gal(b1-4)Glc
# In short: as §1
# GalNAc(b1-3)Gal = biological target: GalNAc(b1-3)Gal
# In short: as §1
# [6] = biological target: GalNAc(b1-3)Gal(a1-4)Gal(b1-4)GlcNAc
# In short: as §1
# [7] = biological target: GalNAc(b1-3)Gal(a1-4)Gal(b1-4)GlcNAc(b1-3)Gal(b1-4)Glc
# In short: as §1
# [8] = biological target: GalNAc(b1-3)Gal(a1-6)Gal(b1-4)Glc
# In short: as §1
# GalNAc(b1-3)GalNAc = biological target: GalNAc(b1-3)GalNAc
# In short: as §1
# GalNAc(b1-4)Gal(b1-4)Glc = biological target: GalNAc(b1-4)Gal(b1-4)Glc
# In short: as §1
# GalNAc(b1-4)GlcNAc = biological target: GalNAc(b1-4)GlcNAc
# In short: as §1
# [9] = biological target: GalNAc(b1-4)GlcNAc(b1-2)Man(a1-3)[GalNAc(b1-4)GlcNAc(b1-2)Man(a1-6)]Man(b1-4)GlcNAc(b1-4)GlcNAc
# In short: as §1
binder,measurement,setting,value
B1,glycan array binding signal (z-score),[1],-0.498
same,glycan array binding signal (z-score),Gal3S(b1-4)Glc,0.09
same,glycan array binding signal (z-score),Gal3S(b1-4)Glc6S,0.393
same,glycan array binding signal (z-score),Gal3S(b1-4)GlcNAc,2.02
same,glycan array binding signal (z-score),Gal3S(b1-4)GlcNAc6S,0.3
same,glycan array binding signal (z-score),[2],0.71
same,glycan array binding signal (z-score),[3],0.808
same,glycan array binding signal (z-score),Gal3S4S(b1-4)GlcNAc,0.472
same,glycan array binding signal (z-score),Gal3S6S(b1-4)GlcNAc,-0.322
same,glycan array binding signal (z-score),Gal3S6S(b1-4)GlcNAc6S,0.39
same,glycan array binding signal (z-score),Gal4S(b1-4)GlcNAc,-0.787
same,glycan array binding signal (z-score),Gal4S6S(b1-4)GlcNAc,0.363
same,glycan array binding signal (z-score),Gal6S(b1-3)GlcNAc,0.363
same,glycan array binding signal (z-score),Gal6S(b1-3)GlcNAc6S,-0.484
same,glycan array binding signal (z-score),Gal6S(b1-4)Glc,-0.443
same,glycan array binding signal (z-score),Gal6S(b1-4)Glc6S,-0.866
same,glycan array binding signal (z-score),Gal6S(b1-4)GlcNAc,0.825
same,glycan array binding signal (z-score),Gal6S(b1-4)GlcNAc6S,0.193
same,glycan array binding signal (z-score),GalNAc(a1-3)Gal,0.534
same,glycan array binding signal (z-score),GalNAc(a1-3)GalNAc,0.263
same,glycan array binding signal (z-score),[4],-0.434
same,glycan array binding signal (z-score),[5],0.845
same,glycan array binding signal (z-score),GalNAc(b1-3)Gal,-0.811
same,glycan array binding signal (z-score),[6],-0.709
same,glycan array binding signal (z-score),[7],-0.081
same,glycan array binding signal (z-score),[8],0.165
same,glycan array binding signal (z-score),GalNAc(b1-3)GalNAc,-0.184
same,glycan array binding signal (z-score),GalNAc(b1-4)Gal(b1-4)Glc,-0.38
same,glycan array binding signal (z-score),GalNAc(b1-4)GlcNAc,0.238
same,glycan array binding signal (z-score),[9],0.79

# 2 entries drawn at random from those above:
binder,measurement,setting,value
B1,glycan array binding signal (z-score),Gal4S(b1-4)GlcNAc,-0.787
same,glycan array binding signal (z-score),Gal3S6S(b1-4)GlcNAc6S,0.39
